No constants are given. Whether binding was seen depends on the method and setting. Binding seen in cells or lysates may run through a third protein. Some results given as binding are weak or reduced against the parent protein; the word gives no strength. For some of these results: Where a sequence is shown, tags or fusion partners need not be part of it.

Protein sequences, listed by entry. Tags and fused reporters are not part of them.
UniProt Q8TCU6: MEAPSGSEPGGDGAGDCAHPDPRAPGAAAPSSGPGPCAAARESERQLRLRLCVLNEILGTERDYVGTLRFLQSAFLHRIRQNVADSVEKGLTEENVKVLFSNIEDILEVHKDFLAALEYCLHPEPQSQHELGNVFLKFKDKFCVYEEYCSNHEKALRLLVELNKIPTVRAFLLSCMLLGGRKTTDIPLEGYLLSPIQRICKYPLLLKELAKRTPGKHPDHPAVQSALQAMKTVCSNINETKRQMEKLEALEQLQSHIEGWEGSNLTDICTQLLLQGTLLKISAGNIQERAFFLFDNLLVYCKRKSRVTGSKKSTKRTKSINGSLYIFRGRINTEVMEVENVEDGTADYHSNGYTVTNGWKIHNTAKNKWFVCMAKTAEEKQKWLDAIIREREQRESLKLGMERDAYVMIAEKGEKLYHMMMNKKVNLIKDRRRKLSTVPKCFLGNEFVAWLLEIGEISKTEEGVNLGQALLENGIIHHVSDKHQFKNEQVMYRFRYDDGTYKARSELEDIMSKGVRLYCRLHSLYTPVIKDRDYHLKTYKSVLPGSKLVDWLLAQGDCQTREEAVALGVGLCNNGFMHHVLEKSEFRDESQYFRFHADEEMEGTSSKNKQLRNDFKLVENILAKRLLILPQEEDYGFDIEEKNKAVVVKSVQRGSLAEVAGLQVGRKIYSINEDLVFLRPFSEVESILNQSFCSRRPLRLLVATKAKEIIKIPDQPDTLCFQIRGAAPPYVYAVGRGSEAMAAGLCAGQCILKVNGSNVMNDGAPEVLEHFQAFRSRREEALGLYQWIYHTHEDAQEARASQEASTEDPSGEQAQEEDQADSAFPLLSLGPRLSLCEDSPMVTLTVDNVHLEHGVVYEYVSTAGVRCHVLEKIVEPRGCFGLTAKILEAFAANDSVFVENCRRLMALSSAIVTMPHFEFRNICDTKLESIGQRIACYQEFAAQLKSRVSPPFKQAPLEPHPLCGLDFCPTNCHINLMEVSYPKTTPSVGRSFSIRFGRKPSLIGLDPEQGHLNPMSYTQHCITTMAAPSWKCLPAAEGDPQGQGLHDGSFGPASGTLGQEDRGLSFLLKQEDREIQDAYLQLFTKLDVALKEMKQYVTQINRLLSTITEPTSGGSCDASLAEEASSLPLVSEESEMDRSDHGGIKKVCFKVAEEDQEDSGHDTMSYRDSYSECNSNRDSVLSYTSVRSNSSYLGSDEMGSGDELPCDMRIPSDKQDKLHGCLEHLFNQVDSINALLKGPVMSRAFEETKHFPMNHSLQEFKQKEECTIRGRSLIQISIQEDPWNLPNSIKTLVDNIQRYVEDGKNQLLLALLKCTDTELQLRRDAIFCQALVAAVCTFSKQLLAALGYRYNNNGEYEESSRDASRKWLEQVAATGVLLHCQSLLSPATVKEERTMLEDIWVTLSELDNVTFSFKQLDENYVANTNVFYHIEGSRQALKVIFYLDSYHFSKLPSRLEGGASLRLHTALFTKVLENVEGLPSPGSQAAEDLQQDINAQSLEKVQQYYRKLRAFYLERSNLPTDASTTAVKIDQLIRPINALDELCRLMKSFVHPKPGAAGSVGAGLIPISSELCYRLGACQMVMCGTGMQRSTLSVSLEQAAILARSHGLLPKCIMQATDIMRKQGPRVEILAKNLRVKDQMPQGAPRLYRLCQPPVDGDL
UniProt Q60610: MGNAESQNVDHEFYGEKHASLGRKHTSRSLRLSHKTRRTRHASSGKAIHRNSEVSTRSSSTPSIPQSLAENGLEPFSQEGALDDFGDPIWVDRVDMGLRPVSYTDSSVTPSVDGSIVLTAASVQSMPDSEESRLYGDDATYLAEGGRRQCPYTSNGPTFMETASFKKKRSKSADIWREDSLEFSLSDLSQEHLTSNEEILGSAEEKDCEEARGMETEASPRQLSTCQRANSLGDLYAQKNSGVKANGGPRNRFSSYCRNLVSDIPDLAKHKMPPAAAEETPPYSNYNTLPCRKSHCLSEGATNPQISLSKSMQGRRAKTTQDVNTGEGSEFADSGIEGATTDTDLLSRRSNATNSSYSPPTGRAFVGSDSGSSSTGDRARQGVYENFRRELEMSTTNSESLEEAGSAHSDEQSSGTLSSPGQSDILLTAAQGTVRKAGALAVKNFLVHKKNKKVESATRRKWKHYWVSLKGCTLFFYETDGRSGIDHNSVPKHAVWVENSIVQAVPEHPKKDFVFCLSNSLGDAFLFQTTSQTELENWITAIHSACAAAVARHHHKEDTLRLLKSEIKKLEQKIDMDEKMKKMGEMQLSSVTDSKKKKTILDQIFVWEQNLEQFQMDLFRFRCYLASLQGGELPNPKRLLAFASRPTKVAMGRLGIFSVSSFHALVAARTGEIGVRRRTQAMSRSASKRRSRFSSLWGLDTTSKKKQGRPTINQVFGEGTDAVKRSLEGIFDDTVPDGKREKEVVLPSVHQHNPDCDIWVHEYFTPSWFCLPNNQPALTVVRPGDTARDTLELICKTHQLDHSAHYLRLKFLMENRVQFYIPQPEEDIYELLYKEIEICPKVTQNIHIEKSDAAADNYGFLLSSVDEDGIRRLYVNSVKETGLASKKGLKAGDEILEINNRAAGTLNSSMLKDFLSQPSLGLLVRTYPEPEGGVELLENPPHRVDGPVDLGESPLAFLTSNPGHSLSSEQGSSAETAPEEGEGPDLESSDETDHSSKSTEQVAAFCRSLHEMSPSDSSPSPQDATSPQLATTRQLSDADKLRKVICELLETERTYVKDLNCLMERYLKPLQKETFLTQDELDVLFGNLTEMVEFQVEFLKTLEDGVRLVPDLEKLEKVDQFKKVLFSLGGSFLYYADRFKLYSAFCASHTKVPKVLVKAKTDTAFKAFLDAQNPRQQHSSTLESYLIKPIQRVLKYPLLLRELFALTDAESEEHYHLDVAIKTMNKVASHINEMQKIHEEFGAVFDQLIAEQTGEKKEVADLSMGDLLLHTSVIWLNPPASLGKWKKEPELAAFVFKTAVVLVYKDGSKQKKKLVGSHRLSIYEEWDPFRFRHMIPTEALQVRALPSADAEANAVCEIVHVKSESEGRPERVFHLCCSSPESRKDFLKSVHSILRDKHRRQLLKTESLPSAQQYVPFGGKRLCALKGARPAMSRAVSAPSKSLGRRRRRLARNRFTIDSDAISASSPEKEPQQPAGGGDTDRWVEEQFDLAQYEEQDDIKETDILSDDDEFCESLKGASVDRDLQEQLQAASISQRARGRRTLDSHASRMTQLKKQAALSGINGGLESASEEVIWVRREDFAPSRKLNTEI

Assay [1] concerns the target T1, FLII, endogenous in CHL1 cells (human (endogenous in CHL1)) (UniProt Q13045).
T1 sequence: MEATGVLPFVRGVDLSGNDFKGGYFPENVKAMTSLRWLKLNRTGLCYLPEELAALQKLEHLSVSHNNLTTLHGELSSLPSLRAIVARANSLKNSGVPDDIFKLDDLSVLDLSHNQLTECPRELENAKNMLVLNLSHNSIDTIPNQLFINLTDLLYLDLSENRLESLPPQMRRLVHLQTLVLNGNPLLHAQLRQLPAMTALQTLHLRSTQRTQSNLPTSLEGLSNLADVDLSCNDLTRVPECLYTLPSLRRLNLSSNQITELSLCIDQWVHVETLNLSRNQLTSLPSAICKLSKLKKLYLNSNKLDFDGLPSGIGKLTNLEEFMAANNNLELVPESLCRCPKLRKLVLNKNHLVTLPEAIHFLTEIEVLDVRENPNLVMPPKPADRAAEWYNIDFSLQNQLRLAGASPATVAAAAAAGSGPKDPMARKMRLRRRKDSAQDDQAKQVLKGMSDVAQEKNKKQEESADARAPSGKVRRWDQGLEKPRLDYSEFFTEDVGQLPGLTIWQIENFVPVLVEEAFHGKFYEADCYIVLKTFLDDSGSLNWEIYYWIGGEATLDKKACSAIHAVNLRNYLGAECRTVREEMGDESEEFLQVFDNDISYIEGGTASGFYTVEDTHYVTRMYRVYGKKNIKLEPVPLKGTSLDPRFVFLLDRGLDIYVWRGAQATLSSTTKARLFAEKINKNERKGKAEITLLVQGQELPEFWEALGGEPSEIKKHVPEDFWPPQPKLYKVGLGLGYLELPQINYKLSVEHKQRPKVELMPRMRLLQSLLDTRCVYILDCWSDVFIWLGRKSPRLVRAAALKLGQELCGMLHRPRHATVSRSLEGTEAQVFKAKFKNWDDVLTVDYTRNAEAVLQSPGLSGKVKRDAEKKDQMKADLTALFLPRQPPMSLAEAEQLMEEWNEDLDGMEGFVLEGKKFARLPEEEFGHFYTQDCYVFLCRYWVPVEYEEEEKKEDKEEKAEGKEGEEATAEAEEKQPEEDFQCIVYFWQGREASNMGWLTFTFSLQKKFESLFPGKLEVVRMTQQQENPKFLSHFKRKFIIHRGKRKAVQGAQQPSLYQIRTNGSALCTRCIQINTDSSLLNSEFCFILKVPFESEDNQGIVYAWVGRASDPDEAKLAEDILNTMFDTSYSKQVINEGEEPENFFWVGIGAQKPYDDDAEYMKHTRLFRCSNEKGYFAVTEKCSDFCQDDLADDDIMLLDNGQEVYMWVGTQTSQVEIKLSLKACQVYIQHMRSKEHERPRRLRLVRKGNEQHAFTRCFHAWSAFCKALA
Briefly: proximity ligation; Duolink in situ PLA with mouse anti-FLII and rabbit anti-P-Rex1 antibodies on fixed CHL1 cells; control with the FLII antibody only.

Assay [2] addresses T2, FLAG-tagged full-length FLII (FLII FL) (UniProt Q13045).
T2 sequence: T1 sequence
Briefly: co-IP; FLAG immunoprecipitation on anti-FLAG M2 affinity gel from HEK293T lysates co-expressing FLAG-tagged FLII (FL or domain mutants) and a GEF, 75 min at 4 °C, 3xFLAG peptide elution, western blot.

For assay [3], the target named is T3, FLII, endogenous in MCF7 cells (human (endogenous in MCF7)) (UniProt Q13045).
T3 sequence: T1 sequence
As to the kind of experiment: co-IP; immunoprecipitation of endogenous P-Rex1 or of endogenous FLII from MCF7 lysates with antibody pre-bound to GammaBind G Sepharose beads, western blot.

“P-Rex1, endogenous in CHL1 cells (from UniProt Q8TCU6 1-1659)”: the binding entry in assay [1] is reported as “binds”.
For the substance “Myc-tagged P-Rex1 WT (from UniProt Q8TCU6 1-1659)”, the binding result in assay [2] is listed as “binds”.
As to “Myc-tagged Tiam1 WT (from UniProt Q60610 1-1591)”, the binding entry in assay [2] is reported as “no binding”.
As for “P-Rex1, endogenous in MCF7 cells (from UniProt Q8TCU6 1-1659)”, in assay [3], the binding entry is “binds”.
